Measurements reported in PubChem BioAssay AID652272 (Drosophila RNAi Screening Center, 2013)
The deposit covers about 21,000 reagents; below is an unselected part of those that have a named target and a result. Of all reagents, 503 (2.4%) were called active. 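Raw plate light values, not normalised; calls rest on replicate z-scores that were not deposited; hits include reporter decreases as well as increases.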 The record does not give: the amount of reagent, the time to read-out.

- Test: 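Finding fly genes that regulate Hedgehog signal transduction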 (primary screen)
- Cells: Drosophila clone 8 (Cl8) cells
- Knock-down reagent: long dsRNA against Drosophila genes
- Read-out: 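Plate reader light from a firefly reporter under a ptc promoter fragment that responds to Hedgehog, with Renilla light as transfection reference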
- Direction: firefly Hh reporter signal: higher = more ptc reporter light; Renilla reference signal: higher = more Renilla control light
- Hit rule: 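Called a hit if the two-replicate mean z-score lies below -2 or above +3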
- Calls: active = hit: reporter lowered or raised; inactive = not a hit

| Target gene | DRSC id | firefly Hh reporter signal, replicate 1 | firefly Hh reporter signal, replicate 2 | firefly Hh reporter signal, replicate 3 | Renilla reference signal, replicate 1 | Renilla reference signal, replicate 2 | Call |
| --- | --- | --- | --- | --- | --- | --- | --- |
| CG5707 | DRSC08573 | 92597 | 1.03e5 | – | 4619 | 3177 | inactive |
| Eh | DRSC16660 | 79616 | 97464 | – | 2032 | 2789 | inactive |
| BomBc2 | DRSC06502 | 62550 | 41405 | – | 1653 | 3353 | inactive |
| Eip74EF | DRSC10613 | 34820 | 49718 | – | 1473 | 1971 | inactive |
| Eip74EF | DRSC11160 | 64336 | – | – | 2517 | 2001 | inactive |
| CG5445 | DRSC19943 | 94215 | 1.32e5 | – | 2263 | 6772 | inactive |
| Ssl2 | DRSC14395 | 1.93e5 | 1.67e5 | – | 6181 | 3556 | inactive |
| gom | DRSC04690 | 97120 | 77104 | – | 2451 | 6664 | inactive |
| CG12911 | DRSC06226 | 81320 | 39851 | – | 2147 | 3666 | inactive |
| CG31960 | DRSC00281 | 1.61e5 | 62160 | – | 3463 | 5169 | inactive |
| SIDL | DRSC16077 | 1.11e5 | 85763 | – | 4432 | 3300 | inactive |
| CG12541 | DRSC17483 | 5.19e5 | 1.68e5 | – | 27697 | 3168 | inactive |
| CG12541 | DRSC17839 | 81619 | 2.31e5 | – | 2480 | 8723 | inactive |
| CG15522 | DRSC15059 | 69707 | 94208 | – | 2979 | 3649 | inactive |
| Ufd4 | DRSC02871 | 1.09e5 | 40871 | – | 3051 | 4682 | inactive |
| CG13230 | DRSC06350 | 80395 | 65027 | – | 1459 | 4680 | inactive |
| CG3222 | DRSC10355 | 23068 | 48057 | 63782 | 4384 | 4714 | inactive |
| CG10265 | DRSC05986 | 1.58e5 | 65274 | – | 5753 | 848 | inactive |
| senju | DRSC02366 | 1.79e5 | 66480 | – | 4480 | 6722 | inactive |
| Ir94c | DRSC13539 | 54010 | 2.34e5 | – | 11403 | 5765 | inactive |
| Polr3H | DRSC10817 | 52748 | 58360 | 72844 | 5763 | 5731 | inactive |
| Tbc1d22 | DRSC15867 | 1.11e5 | 89885 | – | 4176 | 3175 | inactive |
| CG15468 | DRSC18051 | 77114 | 1.82e5 | – | 2952 | 6849 | inactive |
| mIF3 | DRSC06290 | 97317 | 45526 | – | 2500 | 4296 | inactive |
| GstD1 | DRSC16683 | 1.32e5 | 1.48e5 | – | 4505 | 3958 | inactive |
| Ald2 | DRSC14730 | 1.51e5 | 19436 | – | 11751 | 768 | active |
| Ald2 | DRSC15799 | 4.44e5 | 90104 | – | 27162 | 1893 | inactive |
| E(spl)mbeta-HLH | DRSC16697 | 1.33e5 | 1.09e5 | – | 2948 | 2871 | inactive |
| CG30371 | DRSC06835 | 80196 | 48011 | – | 2184 | 3516 | inactive |
| GluRS-m | DRSC10431 | 1.00e5 | – | – | 5629 | 2972 | inactive |
| Ugalt | DRSC18467 | 63270 | 2.75e5 | – | 2935 | 10727 | inactive |
| Cpr35B | DRSC01949 | 2.10e5 | 8.71e5 | 76874 | 5037 | 46410 | inactive |
| CG3257 | DRSC04351 | 1.34e5 | 1.04e5 | – | 5268 | 4339 | inactive |
| Kebab | DRSC00827 | 1.48e5 | 1.22e5 | – | 6756 | 4967 | inactive |
| CG17191 | DRSC15185 | 1.25e5 | 85492 | – | 4560 | 3069 | inactive |
| CG11425 | DRSC11657 | 70901 | 80010 | – | 2902 | 1318 | inactive |
| vers | DRSC10715 | 66514 | 44242 | – | 3098 | 2227 | inactive |
| Ptp36E | DRSC03021 | 2.05e5 | 73069 | – | 4770 | 4105 | inactive |
| Or67b | DRSC11241 | 48085 | 50896 | 69861 | 4544 | 4253 | inactive |
| RanBP3 | DRSC14217 | 85668 | 65237 | – | 3690 | 2512 | inactive |
| mthl15 | DRSC01120 | 4.37e5 | 1.49e5 | – | 24155 | 6397 | inactive |
| Ir75c | DRSC10190 | 87084 | – | – | 5115 | 2378 | inactive |
| RpS5a | DRSC20282 | 42221 | 41676 | – | 2155 | 2196 | active |
| CG34324 | DRSC19502 | 86376 | 3.19e5 | – | 2530 | 13184 | inactive |
| l(2)34Fd | DRSC01911 | 88788 | 43987 | – | 3846 | 2330 | inactive |
| CG13171 | DRSC06299 | 1.04e5 | 72672 | – | 2930 | 5490 | inactive |
| CG15139 (retired record) | DRSC02439 | 82896 | 44659 | – | 3139 | 5267 | active |
| CG10859 | DRSC02110 | 53240 | 39980 | – | 2012 | 1322 | inactive |
| CG11590 | DRSC19411 | 70004 | 1.63e5 | – | 2038 | 7248 | inactive |
| CG8475 | DRSC03091 | 74018 | 68301 | – | 3042 | 2960 | inactive |
| obst-B | DRSC01987 | 1.03e5 | 51628 | – | 4146 | 2396 | inactive |
| ste24b | DRSC07315 | 67532 | 81849 | – | 1349 | 5001 | inactive |
| CG11398 | DRSC18625 | 49539 | 1.69e5 | – | 1297 | 6299 | inactive |
| Tdg | DRSC17119 | 6.11e5 | 2.69e5 | – | 33020 | 6100 | inactive |
| Tdg | DRSC17169 | 82779 | 2.43e5 | – | 2891 | 8561 | inactive |
| Fum3 | DRSC10592 | 30624 | 45197 | 35772 | 4793 | 2704 | inactive |
| lz | DRSC18790 | 78758 | 6.26e5 | 2.32e5 | 1912 | 5649 | inactive |
| CG30349 | DRSC06421 | 97904 | 49562 | – | 3268 | 5341 | inactive |
| CG30349 | DRSC06839 | 83693 | 38539 | – | 2592 | 4369 | inactive |
| Or94b | DRSC16773 | 4.31e5 | 73430 | – | 21446 | 2160 | inactive |
| CG14626 | DRSC18631 | 57040 | 1.82e5 | – | 1818 | 6924 | inactive |
| Aos1 | DRSC14113 | 55492 | 1.31e5 | – | 1786 | 6802 | inactive |
| CG6380 | DRSC02950 | 1.08e5 | 67680 | – | 2640 | 5349 | inactive |
| CG42597 | DRSC03681 | 1.21e5 | 2.32e5 | – | 2996 | 10115 | inactive |
| pie | DRSC03590 | 50608 | 57639 | – | 2667 | 2156 | inactive |
| Pcmt | DRSC12363 | 1.19e5 | 1.44e5 | – | 2800 | 4384 | inactive |
| Ir60e | DRSC04227 | 83266 | 57670 | – | 1591 | 4827 | inactive |
| E(spl)m5-HLH | DRSC16695 | 5.18e5 | 75639 | – | 26336 | 2376 | inactive |
| CG4480 | DRSC02750 | 90425 | 61568 | – | 2458 | 5073 | inactive |
| bif | DRSC18901 | 4.23e5 | 2.27e5 | – | 24951 | 4144 | inactive |
| bif | DRSC20313 | 95508 | 81642 | – | 1936 | 1817 | inactive |
| CG5665 | DRSC11783 | 87088 | 1.29e5 | – | 2449 | 4144 | inactive |
| Grl40a | DRSC03677 | 1.15e5 | 2.07e5 | – | 3400 | 8819 | inactive |
